Assay results: paper PMC6086658, “Unified mechanisms for self-RNA recognition by RIG-I Singleton-Merten syndrome variants” (eLife, 2018)
For at least one entry, the source does not settle the construct or the ends of the probe. Weaker means in comparison with the reference protein, sequence or condition of that experiment. Where a protein sequence is shown, tags need not be part of it.

Biological target: T1, RIG-I wild type (human) (UniProt O95786)
T1 sequence (looked up): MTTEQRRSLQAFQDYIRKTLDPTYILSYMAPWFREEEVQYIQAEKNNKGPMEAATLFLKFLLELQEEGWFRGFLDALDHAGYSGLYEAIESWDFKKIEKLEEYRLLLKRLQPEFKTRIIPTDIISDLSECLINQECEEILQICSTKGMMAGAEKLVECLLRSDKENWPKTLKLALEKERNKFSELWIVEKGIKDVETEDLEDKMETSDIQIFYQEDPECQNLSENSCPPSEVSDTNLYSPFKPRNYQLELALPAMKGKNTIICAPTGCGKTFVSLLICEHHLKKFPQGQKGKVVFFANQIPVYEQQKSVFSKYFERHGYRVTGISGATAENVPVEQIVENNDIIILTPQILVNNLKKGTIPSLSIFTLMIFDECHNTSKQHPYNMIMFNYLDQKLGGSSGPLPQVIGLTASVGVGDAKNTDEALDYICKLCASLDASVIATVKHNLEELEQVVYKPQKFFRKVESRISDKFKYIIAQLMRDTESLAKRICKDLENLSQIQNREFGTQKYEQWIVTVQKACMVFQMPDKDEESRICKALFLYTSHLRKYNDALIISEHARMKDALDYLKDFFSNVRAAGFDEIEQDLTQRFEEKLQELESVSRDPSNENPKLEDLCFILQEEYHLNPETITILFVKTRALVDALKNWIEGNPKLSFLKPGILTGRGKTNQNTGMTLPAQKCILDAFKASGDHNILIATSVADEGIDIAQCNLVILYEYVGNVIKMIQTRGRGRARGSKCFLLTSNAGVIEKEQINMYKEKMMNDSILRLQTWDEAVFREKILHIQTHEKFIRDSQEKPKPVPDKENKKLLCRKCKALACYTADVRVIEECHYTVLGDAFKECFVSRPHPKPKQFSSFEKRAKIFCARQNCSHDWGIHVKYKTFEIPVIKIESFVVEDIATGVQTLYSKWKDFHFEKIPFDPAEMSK
Test: fluorescence anisotropy
Conditions: 5 mM ATP, 5 mM Mg2+, Fluorescence anisotropy: 25 mM HEPES pH 7, 50 mM KCl, 5 mM MgCl2, 1 mM DTT, 10 nM RNA, room temperature, recombinant protein, residues 1-925, protein details: N-terminal His-tag, label: 5'-Cy3

## CCACCCGCCCCCCUAGUGAGGGGGGCGGGCC [Cy3-hpRNA (14mer stem hairpin)]
  binding result: binds more weakly
